# This is one part of the list. The data scatter; read single values as rough.
# The chains behind the UniProt entries cited, without tags or fusion partners. Where a name states a change or a piece, a line headed by the entry shows the natural chain unless it says otherwise.
# UniProt P48449: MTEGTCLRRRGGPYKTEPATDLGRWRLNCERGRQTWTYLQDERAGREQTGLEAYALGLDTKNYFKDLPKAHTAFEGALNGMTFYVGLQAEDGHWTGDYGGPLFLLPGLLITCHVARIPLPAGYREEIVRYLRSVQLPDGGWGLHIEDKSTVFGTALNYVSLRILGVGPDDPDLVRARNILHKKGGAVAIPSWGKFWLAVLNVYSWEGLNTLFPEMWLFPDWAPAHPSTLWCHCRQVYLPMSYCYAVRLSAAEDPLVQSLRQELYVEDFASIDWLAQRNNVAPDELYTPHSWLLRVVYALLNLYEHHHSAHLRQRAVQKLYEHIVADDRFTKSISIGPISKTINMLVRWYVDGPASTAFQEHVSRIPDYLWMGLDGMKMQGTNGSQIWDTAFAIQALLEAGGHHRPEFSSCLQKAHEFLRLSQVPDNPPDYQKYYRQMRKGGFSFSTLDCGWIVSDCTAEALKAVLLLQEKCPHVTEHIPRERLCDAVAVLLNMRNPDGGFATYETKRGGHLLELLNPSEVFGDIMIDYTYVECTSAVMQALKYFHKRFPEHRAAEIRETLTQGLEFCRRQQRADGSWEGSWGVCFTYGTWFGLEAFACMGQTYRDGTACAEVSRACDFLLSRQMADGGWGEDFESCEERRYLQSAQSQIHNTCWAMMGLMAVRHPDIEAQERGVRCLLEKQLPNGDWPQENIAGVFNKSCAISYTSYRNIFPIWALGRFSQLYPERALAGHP
# UniProt P78559: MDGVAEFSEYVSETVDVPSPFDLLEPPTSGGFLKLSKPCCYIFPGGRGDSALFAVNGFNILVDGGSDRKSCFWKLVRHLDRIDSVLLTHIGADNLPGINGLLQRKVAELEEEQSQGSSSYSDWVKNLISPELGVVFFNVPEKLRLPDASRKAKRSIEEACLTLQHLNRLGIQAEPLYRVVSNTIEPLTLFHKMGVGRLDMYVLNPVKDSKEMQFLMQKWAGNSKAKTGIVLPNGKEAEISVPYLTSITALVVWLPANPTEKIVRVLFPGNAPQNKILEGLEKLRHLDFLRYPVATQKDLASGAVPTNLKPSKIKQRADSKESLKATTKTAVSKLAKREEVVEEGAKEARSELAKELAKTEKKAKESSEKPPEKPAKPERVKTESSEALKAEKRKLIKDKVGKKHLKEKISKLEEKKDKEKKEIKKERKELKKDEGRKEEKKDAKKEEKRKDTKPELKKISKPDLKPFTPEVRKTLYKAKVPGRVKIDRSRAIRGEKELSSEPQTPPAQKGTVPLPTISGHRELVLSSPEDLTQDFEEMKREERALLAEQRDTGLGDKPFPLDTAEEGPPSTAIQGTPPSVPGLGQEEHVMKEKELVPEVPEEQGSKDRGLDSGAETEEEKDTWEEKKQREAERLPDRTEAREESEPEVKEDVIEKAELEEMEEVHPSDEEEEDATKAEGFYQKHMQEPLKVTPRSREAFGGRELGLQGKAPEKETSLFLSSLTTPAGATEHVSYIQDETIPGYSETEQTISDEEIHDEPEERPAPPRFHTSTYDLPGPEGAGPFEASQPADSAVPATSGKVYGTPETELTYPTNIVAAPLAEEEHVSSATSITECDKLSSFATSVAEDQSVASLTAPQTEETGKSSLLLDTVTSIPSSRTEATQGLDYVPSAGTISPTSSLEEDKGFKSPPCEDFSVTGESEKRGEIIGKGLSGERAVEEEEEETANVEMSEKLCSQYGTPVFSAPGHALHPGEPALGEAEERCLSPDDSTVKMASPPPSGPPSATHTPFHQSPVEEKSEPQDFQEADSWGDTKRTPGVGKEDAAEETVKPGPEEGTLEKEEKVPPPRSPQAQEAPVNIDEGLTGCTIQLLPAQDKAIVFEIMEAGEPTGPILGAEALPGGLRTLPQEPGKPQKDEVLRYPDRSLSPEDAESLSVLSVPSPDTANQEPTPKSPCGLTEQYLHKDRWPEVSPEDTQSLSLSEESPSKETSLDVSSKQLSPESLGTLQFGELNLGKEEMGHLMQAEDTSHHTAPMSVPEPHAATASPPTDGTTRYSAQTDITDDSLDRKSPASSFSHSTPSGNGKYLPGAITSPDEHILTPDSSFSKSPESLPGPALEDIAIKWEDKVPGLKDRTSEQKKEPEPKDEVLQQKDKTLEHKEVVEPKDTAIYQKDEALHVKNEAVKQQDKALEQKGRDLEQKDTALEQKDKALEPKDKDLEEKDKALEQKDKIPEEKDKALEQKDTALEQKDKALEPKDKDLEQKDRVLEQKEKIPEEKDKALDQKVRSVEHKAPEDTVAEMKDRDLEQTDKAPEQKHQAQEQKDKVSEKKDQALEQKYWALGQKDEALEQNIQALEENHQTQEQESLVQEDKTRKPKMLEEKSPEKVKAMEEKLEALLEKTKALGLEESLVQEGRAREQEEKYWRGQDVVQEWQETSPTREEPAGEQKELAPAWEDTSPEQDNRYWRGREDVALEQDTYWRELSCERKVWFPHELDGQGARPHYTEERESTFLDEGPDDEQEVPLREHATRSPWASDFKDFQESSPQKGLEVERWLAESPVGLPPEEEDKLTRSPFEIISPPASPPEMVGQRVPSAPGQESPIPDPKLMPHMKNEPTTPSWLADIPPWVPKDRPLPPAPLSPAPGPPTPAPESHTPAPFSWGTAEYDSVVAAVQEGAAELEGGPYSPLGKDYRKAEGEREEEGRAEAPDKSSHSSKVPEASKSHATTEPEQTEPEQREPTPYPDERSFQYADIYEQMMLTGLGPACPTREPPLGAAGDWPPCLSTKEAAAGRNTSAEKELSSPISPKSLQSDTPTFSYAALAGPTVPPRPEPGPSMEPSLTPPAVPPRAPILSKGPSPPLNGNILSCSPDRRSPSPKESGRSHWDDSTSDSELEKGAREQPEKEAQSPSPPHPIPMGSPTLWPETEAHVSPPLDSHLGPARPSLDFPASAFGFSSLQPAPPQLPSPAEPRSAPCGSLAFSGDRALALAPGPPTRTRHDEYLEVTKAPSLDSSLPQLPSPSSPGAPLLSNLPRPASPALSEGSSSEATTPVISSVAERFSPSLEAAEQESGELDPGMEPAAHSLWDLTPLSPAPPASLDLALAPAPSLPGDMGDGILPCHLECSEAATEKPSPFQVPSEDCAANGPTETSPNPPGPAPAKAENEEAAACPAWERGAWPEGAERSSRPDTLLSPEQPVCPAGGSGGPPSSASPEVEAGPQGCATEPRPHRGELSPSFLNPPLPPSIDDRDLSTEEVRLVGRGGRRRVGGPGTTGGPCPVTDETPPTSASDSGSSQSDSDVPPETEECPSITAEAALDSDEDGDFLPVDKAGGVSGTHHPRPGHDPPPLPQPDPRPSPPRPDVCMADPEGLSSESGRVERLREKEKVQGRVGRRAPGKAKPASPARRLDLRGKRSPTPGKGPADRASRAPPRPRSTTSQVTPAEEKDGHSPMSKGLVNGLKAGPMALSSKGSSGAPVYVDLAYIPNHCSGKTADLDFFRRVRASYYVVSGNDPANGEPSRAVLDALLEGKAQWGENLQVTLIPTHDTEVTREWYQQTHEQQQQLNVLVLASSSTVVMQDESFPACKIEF
# UniProt Q9Y2E5: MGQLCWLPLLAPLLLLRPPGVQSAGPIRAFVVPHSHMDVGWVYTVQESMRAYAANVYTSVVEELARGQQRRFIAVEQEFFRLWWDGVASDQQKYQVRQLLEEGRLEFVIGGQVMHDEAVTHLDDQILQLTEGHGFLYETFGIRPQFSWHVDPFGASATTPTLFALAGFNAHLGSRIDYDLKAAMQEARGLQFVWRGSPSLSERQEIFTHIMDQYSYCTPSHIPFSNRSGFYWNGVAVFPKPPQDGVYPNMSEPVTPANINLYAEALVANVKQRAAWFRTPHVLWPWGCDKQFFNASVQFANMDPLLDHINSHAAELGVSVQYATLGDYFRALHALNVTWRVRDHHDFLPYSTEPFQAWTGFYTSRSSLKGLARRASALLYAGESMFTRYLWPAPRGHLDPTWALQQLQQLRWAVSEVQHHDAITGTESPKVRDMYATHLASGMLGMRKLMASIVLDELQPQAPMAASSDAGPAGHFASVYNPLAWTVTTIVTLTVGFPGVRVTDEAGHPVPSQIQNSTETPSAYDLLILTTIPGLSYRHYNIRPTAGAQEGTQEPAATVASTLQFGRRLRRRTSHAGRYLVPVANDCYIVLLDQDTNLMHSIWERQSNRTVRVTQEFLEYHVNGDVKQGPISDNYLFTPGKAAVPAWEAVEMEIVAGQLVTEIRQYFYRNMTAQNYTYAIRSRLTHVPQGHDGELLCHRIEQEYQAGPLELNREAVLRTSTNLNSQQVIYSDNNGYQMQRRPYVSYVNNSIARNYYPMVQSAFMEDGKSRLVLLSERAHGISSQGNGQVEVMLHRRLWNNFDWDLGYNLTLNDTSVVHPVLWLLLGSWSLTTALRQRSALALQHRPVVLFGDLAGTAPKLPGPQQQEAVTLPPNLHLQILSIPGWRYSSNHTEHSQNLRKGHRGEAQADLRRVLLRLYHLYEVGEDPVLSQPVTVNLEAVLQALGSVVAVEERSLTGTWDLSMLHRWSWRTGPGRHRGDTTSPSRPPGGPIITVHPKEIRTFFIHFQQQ
# UniProt O95232: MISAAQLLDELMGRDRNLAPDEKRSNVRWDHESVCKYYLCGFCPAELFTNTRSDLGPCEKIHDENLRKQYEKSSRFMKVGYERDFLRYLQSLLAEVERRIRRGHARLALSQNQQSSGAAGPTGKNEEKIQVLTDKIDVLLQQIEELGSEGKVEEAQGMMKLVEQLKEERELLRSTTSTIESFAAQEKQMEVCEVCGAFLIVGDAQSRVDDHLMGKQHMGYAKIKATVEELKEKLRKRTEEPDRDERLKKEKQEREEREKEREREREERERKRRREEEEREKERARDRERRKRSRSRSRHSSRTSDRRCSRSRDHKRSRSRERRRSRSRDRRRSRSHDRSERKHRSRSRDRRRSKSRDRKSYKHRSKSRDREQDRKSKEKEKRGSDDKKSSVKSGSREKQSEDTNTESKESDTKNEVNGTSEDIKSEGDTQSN
# Tests used:
# [1] = compound: ClCC(=O)N[C@@H]1CCCc2ccccc12; experiment: log2 mean competition ratio of IA-DTB cysteine labelling (DMSO/compound) (log2 ratio); higher = stronger cysteine engagement by compound; settings: treatment time: 4 h, cell line lysate: HEK293T
# Experimental: (§1)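 IA-DTB competitive cysteine chemoproteomics in HEK293T RIPA lysate. Lysates were treated with compound 29 or 30 at 50 or 200 µM for 4 h, then IA-DTB (500 µM, 1 h), trypsin-digested, NeutrAvidin-enriched and analysed by diaPASEF. Competition ratio = intensity DMSO / intensity compound (n=4 treated, n=64 DMSO); binding: mean log2 CR ≥ 1 and p ≤ 0.05 plus QC filters. Target is the cysteine site.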
# [2] = compound: ClCC(=O)N[C@H]1CCCc2ccccc12; experiment: as above; settings: treatment time: 4 h, cell line lysate: HEK293T
# Experimental: as §1
Target,log2 mean competition ratio ([1]; 50 µM),log2 mean competition ratio ([1]; 200 µM),log2 mean competition ratio ([2]; 50 µM),log2 mean competition ratio ([2]; 200 µM)
LSS C609 (UniProt P48449),-0.215,-0.0518,-0.274,0.0483
MAP1A C912 (UniProt P78559),-0.316,0.125,-0.543,0.0922
MAN2B2 C288 (UniProt Q9Y2E5),-0.151,-0.211,0.179,-0.151
LUC7L3 C35 (UniProt O95232),-0.105,0.0981,0.00416,0.0269
